Among the data in PubChem BioAssay AID248 (DTP/NCI, 2004) are T/C values, retold here.

The experiment deals with L1210 leukemia ip in BDF1 mice, survival T/C. Put plainly: NCI In Vivo Anticancer Drug Screen. Data for tumor model L1210 Leukemia (intraperitoneal) in B6D2F1 (BDF1) mice. The conditions noted are these: T/C endpoint: mean survival time, higher T/C = longer survival.
Where [1] appears, read: dose: 100.0 mg/kg/injection, schedule: Q01DX001 (ip), vehicle: saline.
Setting [2] is: dose: 50.0 mg/kg/injection, schedule: Q01DX001 (ip), vehicle: carboxymethylcellulose (CMC).
The mark [3] stands for this setting: dose: 100.0 mg/kg/injection, schedule: Q01DX001 (ip), vehicle: carboxymethylcellulose (CMC).
Where [4] appears, read: dose: 100.0 mg/kg/injection, schedule: Q01DX001 (ip), vehicle: Klucel (hydroxypropylcellulose) (HPC).
Setting [5] is: dose: 200.0 mg/kg/injection, schedule: Q01DX001 (ip), vehicle: Klucel (hydroxypropylcellulose) (HPC).
The mark [6] stands for this setting: dose: 400.0 mg/kg/injection, schedule: Q01DX001 (ip), vehicle: Klucel (hydroxypropylcellulose) (HPC).

The list is a part of this screen's results and no random one: its compounds were picked by chemical class. Other doses and runs of a compound may be missing. T/C gives the treated animals as a percentage of the vehicle group. Where survival is the endpoint, this PubChem deposit counts one and a half times the control or more as active, and values a quarter to a half above the control carry no call in these data; other NCI protocols may use other cut-offs. Some entries show no survivor count and are marked so; the dose need not have been tolerated. Schedule codes are those of the source, read here as Q, the interval in days (D) or hours (H), X, the number of doses. Some doses were run more than once; the results are listed from low to high. Some schedule codes hold Z or #, which are not explained here.

For the molecule `CCOC(=O)C[N+](C)(CCCl)CCCl`, the T/C is 114 % of control [survivor count not shown] (dose: 0.62 mg/kg/injection, schedule: Q01DX015 (ip), vehicle: saline); 120 % of control [survivor count not shown] (dose: 0.93 mg/kg/injection, schedule: Q01DX015 (ip), vehicle: saline); 118 [survivor count not shown] and 137 % of control [survivor count not shown] (dose: 1.4 mg/kg/injection, schedule: Q01DX015 (ip), vehicle: saline); 145 % of control [survivor count not shown] (dose: 2.1 mg/kg/injection, schedule: Q01DX015 (ip), vehicle: saline); 156 % of control [survivor count not shown] (dose: 3.1 mg/kg/injection, schedule: Q01DX015 (ip), vehicle: saline); 135 [survivor count not shown] and 161 % of control [survivor count not shown] (dose: 4.7 mg/kg/injection, schedule: Q01DX015 (ip), vehicle: saline). Besides, the T/C by setting is: (dose: 7.0 mg/kg/injection, schedule: Q01DX015 (ip), vehicle: saline) 144 % of control [survivor count not shown]; (dose: 10.5 mg/kg/injection, schedule: Q01DX015 (ip), vehicle: saline) 132 [survivor count not shown] and 139 % of control [survivor count not shown]; (dose: 18.0 mg/kg/injection, schedule: Q01DX015 (ip), vehicle: saline) 154 % of control [survivor count not shown]; (dose: 30.0 mg/kg/injection, schedule: Q01DX015 (ip), vehicle: saline) 172 [survivor count not shown] and 180 % of control [survivor count not shown]; (dose: 44.4 mg/kg/injection, schedule: Q01DX001 (ip), vehicle: saline) 132 % of control [survivor count not shown]; (dose: 50.0 mg/kg/injection, schedule: Q01DX015 (ip), vehicle: saline) 125 [survivor count not shown] and 172 % of control [survivor count not shown]. In addition, the T/C is, setting by setting: (dose: 66.7 mg/kg/injection, schedule: Q01DX001 (ip), vehicle: saline) 136 % of control [survivor count not shown]; under setting [1], 141 % of control [survivor count not shown].
Consider `Cc1nc(-c2ccc(N(CCCl)CCCl)cc2)cs1`, for which the T/C is 105 % of control [survivor count not shown] under setting [2]; 97 % of control [survivor count not shown] under setting [3]; 97 % of control [survivor count not shown] (dose: 200.0 mg/kg/injection, schedule: Q01DX001 (ip), vehicle: carboxymethylcellulose (CMC)); 111 % of control [survivor count not shown] (dose: 400.0 mg/kg/injection, schedule: Q01DX001 (ip), vehicle: carboxymethylcellulose (CMC)).
As to `Cn1c(=O)[nH]cc(N(CCCl)CCCl)c1=O`, the T/C (dose: 0.6 mg/kg/injection, schedule: Q01DX Z (ip), vehicle: methylcellulose (MC)) was 107 % of control [survivor count not shown]; the T/C (dose: 0.63 mg/kg/injection, schedule: Q01DX Z (ip), vehicle: methylcellulose (MC)) was 122 % of control [survivor count not shown]; the T/C (dose: 1.0 mg/kg/injection, schedule: Q01DX Z (ip), vehicle: methylcellulose (MC)) was 137 % of control [survivor count not shown]; the T/C (dose: 1.25 mg/kg/injection, schedule: Q01DX Z (ip), vehicle: methylcellulose (MC)) was 127 % of control [survivor count not shown]; the T/C (dose: 1.5 mg/kg/injection, schedule: Q01DX Z (ip), vehicle: methylcellulose (MC)) was 155 % of control [survivor count not shown]; the T/C (dose: 2.3 mg/kg/injection, schedule: Q01DX Z (ip), vehicle: methylcellulose (MC)) was 86 % of control [survivor count not shown]. Where the note is “dose: 2.5 mg/kg/injection, schedule: Q01DX Z (ip), vehicle: methylcellulose (MC)”, the T/C is 151 % of control [survivor count not shown].
`CCOc1ccc([N+](=O)[O-])cc1CN(CCBr)CCBr`: the T/C under setting [4] is 94 % of control [survivor count not shown], the T/C under setting [5] was 96 % of control [survivor count not shown] and the T/C under setting [6] was 105 % of control [survivor count not shown].
`Cc1ccc(S(=O)(=O)N(CCCl)CCCl)cc1`: the T/C is 100 % of control [survivor count not shown] under setting [4], 95 % of control [survivor count not shown] under setting [5] and 101 % of control [survivor count not shown] under setting [6].
Turning to `S=P(Cl)(Cl)N(CCCl)CCCl`, the T/C was 97 % of control [survivor count not shown] (dose: 6.25 mg/kg/injection, schedule: Q04DX003 (ip), vehicle: saline with Tween-80); 97 % of control [survivor count not shown] (dose: 12.5 mg/kg/injection, schedule: Q04DX003 (ip), vehicle: saline with Tween-80); 92 % of control [survivor count not shown] (dose: 25.0 mg/kg/injection, schedule: Q04DX003 (ip), vehicle: saline with Tween-80); 112 % of control [survivor count not shown] (dose: 50.0 mg/kg/injection, schedule: Q01DX001 (ip), vehicle: saline); 112 % of control [survivor count not shown] under setting [1]; 118 % of control [survivor count not shown] (dose: 200.0 mg/kg/injection, schedule: Q01DX001 (ip), vehicle: saline).
`CN(/N=C\c1ccc(N(CCCl)CCCl)cc1)C(=N)N`: the T/C runs as follows: (dose: 6.0 mg/kg/injection, schedule: Q01DX001 (ip), vehicle: carboxymethylcellulose (CMC)) 96 % of control [survivor count not shown]; (dose: 12.0 mg/kg/injection, schedule: Q01DX001 (ip), vehicle: carboxymethylcellulose (CMC)) 100 % of control [survivor count not shown]; (dose: 25.0 mg/kg/injection, schedule: Q01DX001 (ip), vehicle: carboxymethylcellulose (CMC)) 94 % of control [survivor count not shown]; under setting [2], 113 % of control [survivor count not shown]; under setting [3], 100 [survivor count not shown] and 101 % of control [survivor count not shown].
In the case of `O=P(Cl)(N(CCCl)CCCl)N(CCCl)CCCl`, the T/C was 109 % of control [survivor count not shown] (dose: 6.25 mg/kg/injection, schedule: Q04DX003 (ip), vehicle: DMSO); 121 % of control [survivor count not shown] (dose: 12.5 mg/kg/injection, schedule: Q04DX003 (ip), vehicle: DMSO); 126 % of control [survivor count not shown] (dose: 25.0 mg/kg/injection, schedule: Q01DX001 (ip), vehicle: DMSO); 125 % of control [survivor count not shown] (dose: 25.0 mg/kg/injection, schedule: Q04DX003 (ip), vehicle: DMSO); 128 % of control [survivor count not shown] (dose: 50.0 mg/kg/injection, schedule: Q01DX001 (ip), vehicle: DMSO); 141 [survivor count not shown] and 147 % of control [survivor count not shown] (dose: 100.0 mg/kg/injection, schedule: Q01DX001 (ip), vehicle: DMSO).
